In all, about 33,000 sequences were measured (“E-score (-0.5 to 0.5)”: median about -0.0014, highest 2% from about 0.25 on). The list shows a part of the results.
target: T1, Cad1 (UniProt P24813); test: PBM E-score (8-mer binding enrichment) (E-score (-0.5 to 0.5)); higher = stronger / more preferred TF binding; settings: protein concentration: 100 nM; construct: GST-full length
T1 sequence: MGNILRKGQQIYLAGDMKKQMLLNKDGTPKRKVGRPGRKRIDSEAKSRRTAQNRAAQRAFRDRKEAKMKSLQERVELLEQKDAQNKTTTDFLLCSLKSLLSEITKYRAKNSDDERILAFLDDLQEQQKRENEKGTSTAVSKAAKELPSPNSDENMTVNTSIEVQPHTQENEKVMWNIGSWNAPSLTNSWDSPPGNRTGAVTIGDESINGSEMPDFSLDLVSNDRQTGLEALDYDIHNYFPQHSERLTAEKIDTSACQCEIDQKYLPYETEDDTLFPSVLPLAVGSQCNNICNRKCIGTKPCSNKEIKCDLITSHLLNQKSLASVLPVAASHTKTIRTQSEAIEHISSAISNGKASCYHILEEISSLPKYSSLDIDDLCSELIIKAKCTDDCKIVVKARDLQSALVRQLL
Procedure: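 Universal 'all 10-mer' protein binding microarrays (Agilent AMADID 015681) probed with GST-tagged S. cerevisiae TFs (full-length or DBD) made by in vitro transcription/translation (PURExpress), about 100-200 nM. Bound TF was detected with fluorescent anti-GST. Each ungapped 8-mer (which stands for itself and its reverse complement) is scored by the PBM enrichment score (E-score), a modified Wilcoxon-Mann-Whitney statistic from -0.5 to +0.5, computed with the Universal PBM Analysis Suite. Scale: above 0.35 generally sequence-specific binding.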

| Sequence | PBM E-score |
| --- | --- |
| CTGAACGA | -0.0121 |
| ATTACTAG | 0.0167 |
| GAAGGGGA | -0.16 |
| ATTCCTGG | -0.134 |
| GCGGCCAA | -0.0464 |
| GGCTTGTA | -0.12 |
| ACATGGGA | -0.027 |
| AGGCTCCA | -0.147 |
| CATATTAG | 0.179 |
| CCCGTAAA | -0.101 |
| CACAATTA | 0.00794 |
| ACACGGAC | 0.174 |
| GACCGGTC | -0.0358 |
| GTATGTAA | 0.0891 |
| GACCTTCC | -0.166 |
| CCGCTCCA | -0.145 |
| ACCCACCG | 0.0282 |
| GATAAGCC | -0.0804 |
| AGCGCACA | 0.0155 |
| GTAATCAC | 0.229 |
| CCCCGTTC | -0.128 |
| AACCGTAC | -0.0348 |

| Sequence | PBM E-score |
| --- | --- |
| CACCGAAC | -0.0664 |
| ACGTTAAT | 0.13 |
| CACGCGTG | 0.152 |
| TACCCAGA | 0.109 |
| CCGATCAG | 0.0497 |
| CGTAGTTA | 0.119 |
| ATCGGGAA | -0.0621 |
| CCATTAGC | -0.00824 |
| CGATTCAG | 0.0774 |
| GCTGTCTA | 0.0236 |
| AATTGGTA | 0.112 |
| CGAGTTAA | 0.187 |
| CACTGAAG | 0.0186 |
| CGGGCCTC | 0.0884 |
| CAAGGTCG | 0.0203 |
| AAGAGTCT | -0.0688 |
| ACGACAAA | 0.205 |
| CTTCAGCC | -0.0251 |
| ACGTAGCG | -0.0632 |
| AAAACACC | -0.0358 |
| AGTCGATC | -0.0812 |
| TCCTAACA | -0.00505 |

| Sequence | PBM E-score |
| --- | --- |
| TACCACAA | 0.109 |
| AGCAGGCA | -0.0719 |
| TAGCCTCA | 0.00759 |
| CTCAATCC | 0.0347 |
| GGCGACTA | 0.00513 |
| ACGCCAGC | -0.0379 |
| CGCTTGCA | 0.022 |
| CGCCGCAG | -0.0708 |
| ATTTTACA | -0.0642 |
| CTCCCCTA | -0.234 |
| CTTCGTGC | -0.0684 |
| AGGGCGTC | -0.0327 |
| ATGGGCCC | -0.176 |
| CAACGGAC | -0.00286 |
| AGACTTCA | -0.223 |
| AATAAGAA | 0.252 |
| AAAGAATA | 0.0756 |
| GTCCTCTA | -0.217 |
| TCCCGACA | 0.0229 |
| TACGTGCA | -0.0253 |
| CACATCAA | 0.0379 |
| GGGTCGTA | -0.236 |

| Sequence | PBM E-score |
| --- | --- |
| GACACGAA | 0.129 |
| GAATCAAC | 0.264 |
| AGCTCTAG | -0.0306 |
| CATGGGTC | -0.0891 |
| GCGTTATA | -0.0154 |
| GACTCCCA | -0.266 |
| CCTTGAAG | -0.055 |
| ACCCCATA | -0.0838 |
| AGAAGGAT | -0.277 |
| TAGGGGAA | -0.0561 |
| ACAGTCCC | -0.188 |
| GCCATTAA | 0.089 |
| CCGAATCA | -0.128 |
| GCATGCAC | 0.0754 |
| AAGTGAAG | -0.141 |
| AAACGGCT | -0.224 |
| ACTATCAT | 0.143 |
| ATGGAGTG | -0.162 |
| TCAATCAA | 0.0737 |
| AGGTTAGA | -0.223 |

2 entries picked at random from those above:

| Sequence | PBM E-score |
| --- | --- |
| GAAGGGGA | -0.16 |
| ATTACTAG | 0.0167 |
